Data published in paper doi:10.1101/2021.02.22.432310.
These are yes or no findings as the source states them, for the method shown.

The chains behind the UniProt entries cited, without tags or fusion partners.
UniProt P06710: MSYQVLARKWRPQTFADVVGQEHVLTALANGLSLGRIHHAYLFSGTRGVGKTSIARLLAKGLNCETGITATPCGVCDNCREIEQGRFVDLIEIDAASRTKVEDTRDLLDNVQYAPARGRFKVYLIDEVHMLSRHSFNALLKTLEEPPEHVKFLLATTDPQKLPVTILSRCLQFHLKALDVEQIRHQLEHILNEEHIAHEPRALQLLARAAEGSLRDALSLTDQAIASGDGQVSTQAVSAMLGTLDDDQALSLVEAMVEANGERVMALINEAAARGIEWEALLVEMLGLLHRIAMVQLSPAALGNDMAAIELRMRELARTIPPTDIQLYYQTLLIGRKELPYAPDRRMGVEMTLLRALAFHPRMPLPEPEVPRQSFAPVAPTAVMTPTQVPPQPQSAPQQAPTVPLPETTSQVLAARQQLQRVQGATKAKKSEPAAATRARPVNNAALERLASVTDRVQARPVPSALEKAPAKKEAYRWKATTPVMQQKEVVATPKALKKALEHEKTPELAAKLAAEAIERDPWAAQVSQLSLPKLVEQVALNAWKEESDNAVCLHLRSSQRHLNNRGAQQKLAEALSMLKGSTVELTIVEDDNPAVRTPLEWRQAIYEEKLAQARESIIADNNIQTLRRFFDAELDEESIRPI

Target: T1, Biotinylated UvrD (E. coli) (UniProt P03018)
T1 sequence (chain, biotin): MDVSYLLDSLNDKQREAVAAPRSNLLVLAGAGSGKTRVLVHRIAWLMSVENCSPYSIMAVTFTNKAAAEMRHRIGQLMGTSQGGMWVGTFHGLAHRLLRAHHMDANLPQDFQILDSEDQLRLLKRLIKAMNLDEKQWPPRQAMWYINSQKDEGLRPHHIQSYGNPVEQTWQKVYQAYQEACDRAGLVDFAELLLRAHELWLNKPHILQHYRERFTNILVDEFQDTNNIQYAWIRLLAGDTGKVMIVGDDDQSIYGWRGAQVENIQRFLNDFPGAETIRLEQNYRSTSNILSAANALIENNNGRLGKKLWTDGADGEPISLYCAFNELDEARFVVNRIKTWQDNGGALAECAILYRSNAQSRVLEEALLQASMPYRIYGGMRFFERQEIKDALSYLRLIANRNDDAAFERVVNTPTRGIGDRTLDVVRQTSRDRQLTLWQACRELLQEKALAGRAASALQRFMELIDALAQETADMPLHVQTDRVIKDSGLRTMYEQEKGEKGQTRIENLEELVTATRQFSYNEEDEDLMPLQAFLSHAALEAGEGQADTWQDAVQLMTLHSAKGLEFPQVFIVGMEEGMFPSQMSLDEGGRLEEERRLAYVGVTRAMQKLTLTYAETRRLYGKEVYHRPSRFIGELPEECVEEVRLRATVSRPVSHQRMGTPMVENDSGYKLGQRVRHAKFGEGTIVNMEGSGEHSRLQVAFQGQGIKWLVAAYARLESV
Test: SPR

Substance: Tau (from UniProt P06710 1-643)
- binding: no binding (tested: ca. 200-4000 nM)
